Experimental findings from paper PMC4020751 are described below.

Amino acid sequences for entries named in this document (tags omitted). A change or cut given only in a name is not applied to a line headed by its entry. Chains listed by the source or under a name are the forms on record and can include a tag or linker.
Htt103Q (huntingtin exon 1 fragment with an expanded polyQ domain, without NLS) (P42858, form named): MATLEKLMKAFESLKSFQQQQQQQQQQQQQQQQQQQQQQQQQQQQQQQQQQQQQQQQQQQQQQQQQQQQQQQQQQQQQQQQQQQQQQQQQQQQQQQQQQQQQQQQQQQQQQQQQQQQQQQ

Results are given in words; binding and its absence hold for the method and conditions named. For some of these results: Binding seen in cells or lysates may run through a third protein. Some entries that bind do so weakly or less than the wild type.

Assay [1] deals with Htt103Q (huntingtin exon 1 fragment with an expanded polyQ domain, without NLS) (human) (UniProt P42858). Kind of assay: SEC; yeast lysates (7 mg/mL total protein; 0.1% Triton X-100, 75 mM Tris pH 7.4, 150 mM NaCl, 1 mM EDTA) from cells expressing the proteins alone or together, on a Sephacryl S-200 column at 0.25 mL/min; 1 mL fractions analysed by Western blot. (In general: In gel filtration, larger molecules generally elute earlier.)

The target is the same in assay [2]. Briefly: co-IP; 400 uL aliquots of the monomeric gel filtration fractions of yeast lysate; Htt103Q precipitated with anti-GFP and Protein G beads; Pop2(1–159)-mRFP detected with anti-RFP.
Assay [3] shares this target. Kind of assay: co-IP; 400 uL aliquots of the high molecular weight gel filtration fractions of yeast lysate; Htt103Q precipitated with anti-GFP and Protein G beads; Pop2(1–159)-mRFP detected with anti-RFP.

B1: Pop2(1–147) (domain or fragment, UniProt P39008 1-147)
chain: MQSMNVQPRVLAVGGEQFFSQRQASEQHQQQNMGPQVYSPKVNRARMFPQGMPVNTINGSVNQEMNNAYLLKQKNEPLLTQQQQQQQQQQQPFNIGTPVSVASLPPGLNVLQQQQQQQQQQQQQQQGVGLNRPLASQLPKHLTNQSM
Take B1: the binding entry in assay [1] is on record as “no binding”.

B2: Pop2(1–159)-mRFP (domain or fragment, UniProt P39008 1-159)
chain: MQSMNVQPRVLAVGGEQFFSQRQASEQHQQQNMGPQVYSPKVNRARMFPQGMPVNTINGSVNQEMNNAYLLKQKNEPLLTQQQQQQQQQQQPFNIGTPVSVASLPPGLNVLQQQQQQQQQQQQQQQGVGLNRPLASQLPKHLTNQSMPPIFLPPPNYLF
For B2, the binding result in assay [2] is “no binding (condition: monomeric gel filtration fractions)”; in assay [3], “binds”; in assay [1], “binds”.
